In the supplement of paper PMC12823440, “Inhibitors supercharge kinase turnover through native proteolytic circuits” (Nature, 2025):
Where a name gives a salt, the structure may show the parent alone. Some of the results follow. Hit calls seldom repeat between salt and free forms of one compound.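 Kinases were expressed as nanoluciferase fusions in K562 cells and luminescence was read every 4 h between 2 and 18 h as percent of control, DMSO set to 100% and a positive control to 0%. A time point counts as decreased when the signal drops significantly (2 sigma). The hit call is the authors' own, does not follow from the count of time points alone, and its rule is not shown.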

Amino acid sequences for entries named in this document (tags omitted).
UniProt O96017, whole entry: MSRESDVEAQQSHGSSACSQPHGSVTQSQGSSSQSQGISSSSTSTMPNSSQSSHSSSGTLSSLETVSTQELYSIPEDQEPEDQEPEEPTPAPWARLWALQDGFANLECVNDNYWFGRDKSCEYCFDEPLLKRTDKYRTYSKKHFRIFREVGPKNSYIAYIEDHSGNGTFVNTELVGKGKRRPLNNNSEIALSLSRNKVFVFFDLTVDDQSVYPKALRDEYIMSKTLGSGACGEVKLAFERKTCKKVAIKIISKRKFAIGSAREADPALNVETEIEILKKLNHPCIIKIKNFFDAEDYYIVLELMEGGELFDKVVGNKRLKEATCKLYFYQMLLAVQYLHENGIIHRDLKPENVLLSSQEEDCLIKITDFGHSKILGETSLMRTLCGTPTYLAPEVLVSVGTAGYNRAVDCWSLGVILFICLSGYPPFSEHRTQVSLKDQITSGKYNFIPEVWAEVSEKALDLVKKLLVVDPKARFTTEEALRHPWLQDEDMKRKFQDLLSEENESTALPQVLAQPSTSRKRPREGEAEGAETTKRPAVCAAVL

target: CHEK2 (UniProt O96017); test: number of time points (of 5) at which kinase-Nluc abundance scored as decreased, DMSO-normalised (count); higher = more persistent destabilization; conditions: K562; 2-18 h

Question: How did the “number of time points” value turn out when `Cn1c(N2CCO[C@@H](c3ccc(F)cc3)C2)nc(-c2ccncn2)cc1=O` (10 µM) was run?
Answer: Its value is 0.

Question: Which “number of time points” value does the source give for `C[C@@H](NC(=O)c1ncnc(N)c1Cl)c1ncc(C(=O)Nc2cc(C(F)(F)F)c(Cl)cn2)s1` (2.5 µM) here?
Answer: The value was 2.

Question: With `CO/N=C1/C(c2c(O)[nH]c3cc(Cl)c(Cl)cc23)=Nc2ccccc21` (10 µM) as the compound, how does the “number of time points” value read?
Answer: The value was 0.

Question: For `Cc1n[nH]c2ncc(C(=O)N3CCC[C@H]3c3ccc(Cl)cc3)cc12` (10 µM), which “number of time points” value is on record?
Answer: The value was 0.

Question: How did the “number of time points” value turn out when `Cc1ccc(Nc2cc(N[C@@H]3CCCC[C@@H]3N)nnc2C(N)=O)nc1C` (2 µM) was run?
Answer: The value was 0.

Question: Which “number of time points” value does the source give for `NC(=O)c1cnc(N[C@@H]2CCCC[C@@H]2N)nc1Nc1cccc(-n2nccn2)c1` (2.5 µM) here?
Answer: Its value is 0.

Question: With `CCc1c(C(=O)NNC(=O)[C@H](O)c2cc(F)cc(F)c2)ccc(O)c1C` (10 µM) as the compound, how does the “number of time points” value read?
Answer: Its value is 0.

Question: Which “number of time points” value does the source give for `CC/C(=C(\c1ccccc1)c1ccc(OCCNC)cc1)c1ccccc1` [N-Desmethyltamoxifen (hydrochloride)] (2.5 µM) here?
Answer: The value was 0.

Question: How did the “number of time points” value turn out when `CCCCNc1ncc(C(=O)NCc2ccc(-n3ccnc3)cc2)c(NC2CCC(O)CC2)n1` (centres undefined) (10 µM) was run?
Answer: The value was 1.

Question: Which “number of time points” value does the source give for `Oc1ccc(-c2cnc3ccc(NCc4ccco4)nn23)cc1` [IRAK inhibitor 2] (2.5 µM) here?
Answer: Its value is 0.

Question: How did the “number of time points” value turn out when `CS(=O)(=O)c1ccc([C@@H](CC2CCCC2)C(=O)Nc2nccs2)cc1` (10 µM) was run?
Answer: Its value is 0.

Question: `CC(=O)O/N=C1/C(c2c(O)[nH]c3cc(Br)ccc23)=Nc2ccccc21` [BIO-acetoxime] (10 µM) was tested. Which “number of time points” value did it give?
Answer: The value was 0.

Question: How did the “number of time points” value turn out when `COc1cc2nc(-c3cc(F)ccc3O)nc(N[C@@H]3CNC[C@H]3C(C)(C)O)c2cc1OC` (2.5 µM) was run?
Answer: Its value is 0.

Question: How did the “number of time points” value turn out when `CS(=O)(=O)c1cccc(CNc2nc(Nc3ccc4c(c3)CCC(=O)N4)ncc2C(F)(F)F)c1` (10 µM) was run?
Answer: The value was 0.

Question: How did the “number of time points” value turn out when `Nc1nc(Nc2ccc3c(c2)CC[C@@H](N2CCCC2)CC3)nn1-c1cc2c(nn1)-c1ccccc1CCC2` [Bemcentinib] (2.5 µM) was run?
Answer: The value was 0.

Question: `Nc1[nH]nc2nnc(-c3c(-c4ccccc4)nn4ccccc34)cc12` (10 µM) was tested. Which “number of time points” value did it give?
Answer: The value was 0.

Question: `CN1CCN(Cc2ccc(-c3cnc4[nH]cc(-c5ccc6[nH]ccc6c5)c4c3)cc2)CC1` (2.5 µM) was tested. Which “number of time points” value did it give?
Answer: The value was 0.

Question: For `CC(C)n1cnc2c(Nc3cccc(Cl)c3)nc(N[C@H]3CCCC[C@@H]3N)nc21` (2.5 µM), which “number of time points” value is on record?
Answer: The value was 0.

Question: How did the “number of time points” value turn out when `CCC(F)(F)c1cc(N2CCC(S(C)(=O)=O)CC2)nc2sc(C(N)=O)c(N)c12` (10 µM) was run?
Answer: Its value is 0.

Question: Which “number of time points” value does the source give for `CC(C)c1cc2c(c(O)c1O)[C@@]13CCCC(C)(C)[C@@H]1C[C@@H]2OC3=O` [Carnosol] (2.5 µM) here?
Answer: The value was 0.

Question: `COc1ccc2nc3ccc(OC)cc3c(SCCCN)c2c1` (10 µM) was tested. Which “number of time points” value did it give?
Answer: Its value is 2.

Question: How did the “number of time points” value turn out when `COc1cc2nnc(C(N)=O)c(Nc3ccc(C)cc3F)c2cc1N1CCN(CCO)CC1` (2.5 µM) was run?
Answer: Its value is 0.

Question: For `Nc1ccc(C(=O)Nc2cccc(-c3nc(N4CCOCC4)c4oc5ncccc5c4n3)c2)cn1` (10 µM), which “number of time points” value is on record?
Answer: The value was 0.

Question: `Cc1nn(CC(F)(F)F)cc1Nc1ncc(Br)c(NCc2ccc(S(N)(=O)=O)cc2)n1` (10 µM) was tested. Which “number of time points” value did it give?
Answer: The value was 0.

Question: Which “number of time points” value does the source give for `O=C1NC(=O)C(Cc2c[nH]c3c(Cl)cccc23)N1` (centres undefined) [Necroptosis-IN-1] (10 µM) here?
Answer: The value was 0.

Question: For `CCCCNc1ncc2c(-c3ccc(F)cc3)nn(CC3CCC(N)CC3)c2n1` (centres undefined) (2.5 µM), which “number of time points” value is on record?
Answer: Its value is 0.

Question: With `Cn1cc(-c2nc(N[C@@H]3CCCC[C@@H]3N)c(F)c3c2C(=O)NC3)cn1` [TAK-659 (hydrochloride)] (2 µM) as the compound, how does the “number of time points” value read?
Answer: The value was 0.

Question: `O=C1OC(COc2ccccc2[N+](=O)[O-])CC1Cc1ccccc1` (centres undefined) (10 µM) was tested. Which “number of time points” value did it give?
Answer: The value was 0.

Question: Which “number of time points” value does the source give for `Cc1cnc(Nc2ccc(F)cc2Cl)nc1-c1c[nH]c(C(=O)N[C@H](CO)c2cccc(Cl)c2)c1` (10 µM) here?
Answer: The value was 0.

Question: `N#Cc1cnc(Nc2cc(NC[C@H]3CNCCO3)c(C(F)(F)F)cn2)cn1` (10 µM) was tested. Which “number of time points” value did it give?
Answer: Its value is 0.

Question: With `CNc1cc2c(Nc3cccc(Br)c3)ncnc2cn1` (10 µM) as the compound, how does the “number of time points” value read?
Answer: Its value is 0.

Question: Which “number of time points” value does the source give for `Cc1ncsc1-c1ccc(CNC(=O)[C@@H]2C[C@@H](O)CN2C(=O)[C@@H](NC(=O)COCCOc2ccc(-c3cc(Nc4ccc(OC(F)(F)F)cc4)ncn3)cc2)C(C)(C)C)cc1` (2.5 µM) here?
Answer: The value was 2.

Question: With `O=CN1CCN(c2ccc(C=C3C(=O)Nc4ccccc43)cc2)CC1` (10 µM) as the compound, how does the “number of time points” value read?
Answer: Its value is 0.

Question: For `CN1C(=O)[C@@H](NC(=O)c2cc(Cc3ccccc3)on2)COc2ccccc21` (10 µM), which “number of time points” value is on record?
Answer: The value was 0.

Question: `O=C(CCl)c1c[nH]c2ccccc12` (2.5 µM) was tested. Which “number of time points” value did it give?
Answer: The value was 0.

Question: How did the “number of time points” value turn out when `NC(=O)c1c(NC(=O)C2CC2)sc2c1CCCC2` (10 µM) was run?
Answer: The value was 0.

Question: `CN(C)c1ccc(/C=C2\C(=O)Nc3ccccc32)c2ccccc12` (10 µM) was tested. Which “number of time points” value did it give?
Answer: The value was 0.

Question: Which “number of time points” value does the source give for `O=C(O)c1c[nH]c2cc(Cl)c(-c3ccc(C4(O)CCC4)cc3)cc12` (10 µM) here?
Answer: Its value is 0.

Question: For `CC1=C(C#N)C(c2ccc3[nH]nc(C)c3c2)C(C#N)=C(C)N1` (10 µM), which “number of time points” value is on record?
Answer: Its value is 0.
